Results taken from patent US11104670B2, “4-pyrimidin-5-ylmethyl-morpholine derivatives and the use thereof as medicament” (Boehringer Ingelheim International GmbH, priority 2018, dated 2021).
For at least one compound, name, drawing or mass did not settle the structure. Some entries repeat one wording, which the source may state once for all of them.

Protein sequences, listed by entry. Tags and fused reporters are not part of them. Residues count along the entry.
UniProt Q13224, 27-1484: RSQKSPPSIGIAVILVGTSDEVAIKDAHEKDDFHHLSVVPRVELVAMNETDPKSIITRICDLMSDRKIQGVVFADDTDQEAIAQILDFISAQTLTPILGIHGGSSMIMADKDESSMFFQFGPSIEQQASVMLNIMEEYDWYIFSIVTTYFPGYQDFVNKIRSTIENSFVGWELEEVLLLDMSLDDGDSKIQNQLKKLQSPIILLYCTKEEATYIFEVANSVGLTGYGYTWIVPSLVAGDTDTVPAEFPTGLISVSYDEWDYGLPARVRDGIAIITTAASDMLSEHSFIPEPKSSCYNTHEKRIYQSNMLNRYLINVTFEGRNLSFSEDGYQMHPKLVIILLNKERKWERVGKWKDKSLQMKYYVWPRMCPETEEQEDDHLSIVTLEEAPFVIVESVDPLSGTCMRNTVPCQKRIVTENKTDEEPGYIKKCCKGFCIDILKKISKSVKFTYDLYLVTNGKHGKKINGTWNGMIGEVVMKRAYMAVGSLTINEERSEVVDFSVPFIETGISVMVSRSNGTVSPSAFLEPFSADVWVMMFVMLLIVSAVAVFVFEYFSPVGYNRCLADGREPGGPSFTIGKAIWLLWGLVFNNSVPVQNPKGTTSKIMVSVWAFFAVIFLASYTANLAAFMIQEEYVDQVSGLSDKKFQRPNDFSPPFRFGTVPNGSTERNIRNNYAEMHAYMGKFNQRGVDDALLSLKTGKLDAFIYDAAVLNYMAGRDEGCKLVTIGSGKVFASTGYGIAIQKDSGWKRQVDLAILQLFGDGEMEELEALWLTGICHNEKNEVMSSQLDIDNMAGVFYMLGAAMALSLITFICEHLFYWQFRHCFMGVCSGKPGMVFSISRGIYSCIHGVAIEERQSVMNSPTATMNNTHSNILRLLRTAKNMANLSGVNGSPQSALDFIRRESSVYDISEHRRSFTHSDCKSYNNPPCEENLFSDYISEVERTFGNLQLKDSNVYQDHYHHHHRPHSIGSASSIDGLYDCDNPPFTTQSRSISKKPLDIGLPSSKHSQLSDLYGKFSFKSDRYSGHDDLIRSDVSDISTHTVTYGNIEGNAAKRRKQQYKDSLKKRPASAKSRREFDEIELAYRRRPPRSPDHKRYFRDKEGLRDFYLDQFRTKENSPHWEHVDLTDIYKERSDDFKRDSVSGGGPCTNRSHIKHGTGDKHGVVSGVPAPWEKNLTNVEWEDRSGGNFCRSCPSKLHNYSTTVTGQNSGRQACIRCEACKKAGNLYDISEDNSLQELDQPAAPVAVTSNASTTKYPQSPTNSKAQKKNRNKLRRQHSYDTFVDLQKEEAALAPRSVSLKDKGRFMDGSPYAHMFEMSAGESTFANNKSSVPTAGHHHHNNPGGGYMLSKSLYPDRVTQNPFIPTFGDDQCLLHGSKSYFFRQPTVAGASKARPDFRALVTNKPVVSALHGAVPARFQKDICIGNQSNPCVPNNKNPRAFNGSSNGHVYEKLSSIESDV

Target: NMDA NR1/NR2B receptor (Homo sapiens (Human), UniProt Q13224)
Test: NMDA NR1/NR2B FLIPR calcium assay in HEK293 cells
Type: cell-based
Procedure: A human HEK293 cell line with tetracyclin-inducible expression of NMDA NR1/NR2B receptor was used as a test system for compound efficacy and potency. The cell line was purchased from ChanTest, Catalog #CT6121. Compound activity was determined by measuring the effect of compounds on intracellular calcium concentration induced by glycine/glutamate agonism in a FLIPRtetra system (Molecular Devices).
The cells were obtained as frozen cells in cryo-vials and stored until use at −150° C. Cells were grown in culture medium (DMEM/F12, 10% FBS, 5 μg/mL Blasticidin, 150 μg/mL Zeozin, 500 μg/mL Geneticin). […] For sub-culturing the cells were detached from flasks by Versene. For the assay, cells were detached, washed twice with induction medium (DMEM/F12 without glutamine, 10% FBS, 2 μg/mL Tetracycline, 2 mM Ketamine) and seeded to 384 well pure coat amine plates (Becton Dickinson, 50000 cells per well in 50 μl) 48 h prior to assay in induction medium.
The test compounds were dissolved in 100% DMSO at a concentration of 10 mM and in a first step diluted in DMSO to a concentration of 5 mM, followed by serial dilution steps in 100% DMSO. Dilution factor and number of dilution steps may vary according to needs. […]
At the assay day cells were washed 3× with assay buffer (as described above), 10 μL buffer remained in the wells after washing. […] Fluorescence (indicating the calcium influx as a result of the NR1/NR2B ion channel activation) was read on the FLIPRtetra device for 60 seconds to monitor the glutamate induced effects. […] Each assay microtiter compound dilution plate contained wells (in column 23 or 24) with DMSO controls instead of compound as controls for glycine/glutamate induced fluorescence (high controls) and wells with 1 μM of a reference NR2B NAM as low controls (Compound 22; reference: Layton, Mark E et al, ACS Chemical Neuroscience 2011, 2(7), 352-362).
The output file of the reader contains the well number and measured average fluorescence units. […] The IC50 values were calculated using the standard 4 parameter logistic regression formula. […]

SMILES	activity on the NR1-NR2B ion channel (in words)
CCNC(=O)C1CN(Cc2cccc(Oc3ccccc3)c2)CCO1 (stereo not drawn) [Example 100, reference compound]	do not show any activity
O=C(NCc1ccccn1)C1CN(Cc2cccc(Oc3ccccc3)c2)CCO1 (stereo not drawn) [Example 105, reference compound]	do not show any activity
O=C(C1CN(Cc2cccc(Oc3ccccc3)c2)CCO1)N1CCOCC1 (stereo not drawn) [Example 106, reference compound]	do not show any activity
